{"source": "paper PMC5457524", "about": "“An engineered high affinity Fbs1 carbohydrate binding protein for selective capture of N-glycans and N-glycopeptides” (Nature Communications, 2017)", "binders": {"B1": {"name": "RNase B (natural protein, UniProt P61823 27-150, looked up)", "chain": "KETAAAKFERQHMDSSTSAASSSNYCNQMMKSRNLTKDRCKPVNTFVHESLADVQAVCSQKNVACKNGQTNCYQSYSTMSITDCRETGSSKYPNCAYKTTQANKHIIVACEGNPYVPVHFDASV", "modifications": "a single site modified by a variety of high-mannose N-glycans", "notes": "RNase B, the N-glycosylated form of pancreatic ribonuclease; Denatured by boiling (SDS/DTT or Rapid PNGase F buffer), or on Affi-Gel 10 beads with 6 M guanidine-HCl; source: bought: New England Biolabs; denatured before the assay"}, "B2": {"name": "fetuin (protein, UniProt P12763 19-359)", "chain": "IPLDPVAGYKEPACDDPDTEQAALAAVDYINKHLPRGYKHTLNQIDSVKVWPRRPTGEVYDIEIDTLETTCHVLDPTPLANCSVRQQTQHAVEGDCDIHVLKQDGQFSVLFTKCDSSPDSAEDVRKLCPDCPLLAPLNDSRVVHAVEVALATFNAESNGSYLQLVEISRAQFVPLPVSVSVEFAVAATDCIAKEVVDPTKCNLLAEKQYGFCKGSVIQKALGGEDVRVTCTLFQTQPVIPQPQPDGAEAEAPSAVPDAAGPTPSAAGPPVASVVVGPSVVAVPLPLHRAHYDLRHTFSGVASVESSSGEAFHVGKTPIVGQPSIPGGPVRLCPGRIRYFKI", "modifications": "sialylated complex N-linked glycans"}, "B3": {"name": "SNAP-Fbs1 fusion protein (wild-type human Fbs1 sugar-binding domain, residues 92-296) (domain or fragment, UniProt Q9UK22 92-296)", "chain": "CQQEGLVPEGGVEEERDHWQQFYFLSKRRRNLLRNPCGEEDLEGWCDVEHGGDGWRVEELPGDSGVEFTHDESVKKYFASSFEWCRKAQVIDLQAEGYWEELLDTTQPAIVVKDWYSGRSDAGCLYELTVKLLSEHENVLAEFSSGQVAVPQDSDGGGWMEISHTFTDYGPGVRFVRFEHGGQDSVYWKGWFGARVTNSSVWVEP"}, "B4": {"name": "p50-Fbs1 fusion protein (wild type) of the plasmid display (domain or fragment, UniProt Q9UK22 92-296)", "chain": "B3 chain"}, "B5": {"name": "SNAP-Fbs1 PPG variant (designed binder, UniProt Q9UK22 92-296)", "chain": "B3 chain with D63P, S64P"}, "B6": {"name": "SNAP-Fbs1 PPS variant (designed binder, UniProt Q9UK22 92-296)", "chain": "B3 chain with D63P, S64P, G65S"}, "B7": {"name": "SNAP-Fbs1 PPR variant (designed binder, UniProt Q9UK22 92-296)", "chain": "B3 chain with D63P, S64P, G65R"}, "B8": {"name": "SNAP-Fbs1 YR variant (F173Y/E174R) (designed binder, UniProt Q9UK22 92-296)", "chain": "B3 chain with F82Y, E83R"}, "B9": {"name": "asialo-SGP-TMR (peptide)", "peptide": "KVANKT", "modifications": "N-glycan of SGP without sialic acids; two TMR fluorophores on the lysines"}}, "key": {"[1]": {"target": "T1, SNAP-Fbs1 fusion protein (wild-type human Fbs1 sugar-binding domain, residues 92-296) (human) (UniProt Q9UK22)", "T1 sequence": "B3 chain", "experiment": "pull-down; SNAP-Fbs1 on BG beads; mixture of denatured fetuin and RNase B; high salt (2 M ammonium acetate pH 7.5 named for Fig. 4a); 4 °C, 1 h; SDS-PAGE; both purified"}, "[2]": {"target": "T2, SNAP-Fbs1 PPRYR variant (combination of PPR and YR) (human) (UniProt Q9UK22)", "T2 sequence": "B3 chain with D63P, S64P, G65R, F82Y, E83R", "experiment": "pull-down; wt, GYR or PPRYR SNAP-Fbs1 on BG beads; mixture of denatured fetuin and RNase B; low salt (50 mM ammonium acetate pH 7.5 named for Fig. 4a); 4 °C, 1 h; SDS-PAGE; both purified"}, "[3]": {"target": "T1, SNAP-Fbs1 fusion protein (wild-type human Fbs1 sugar-binding domain, residues 92-296) (human)", "experiment": "pull-down; wt, GYR or PPRYR SNAP-Fbs1 on BG beads; mixture of denatured fetuin and RNase B; low salt (50 mM ammonium acetate pH 7.5 named for Fig. 4a); 4 °C, 1 h; SDS-PAGE; both purified"}, "[4]": {"target": "T1, SNAP-Fbs1 fusion protein (wild-type human Fbs1 sugar-binding domain, residues 92-296) (human)", "experiment": "pull-down; SNAP-Fbs1 on BG beads; RNase B or human IgG denatured by boiling in 0.5% SDS and 40 mM DTT, 1% NP-40 added, untreated or treated with PNGase F; 4 °C, 1 h; SDS-PAGE with Coomassie blue; both purified"}, "[5]": {"target": "T3, SNAP-Fbs1 GYR variant (S155G, F173Y, E174R) (human) (UniProt Q9UK22)", "T3 sequence": "B3 chain with S64G, F82Y, E83R", "experiment": "pull-down; wt, GYR or PPRYR SNAP-Fbs1 on BG beads; mixture of denatured fetuin and RNase B; low salt (50 mM ammonium acetate pH 7.5 named for Fig. 4a); 4 °C, 1 h; SDS-PAGE; both purified"}, "[6]": {"target": "T2, SNAP-Fbs1 PPRYR variant (combination of PPR and YR) (human)", "experiment": "pull-down; wt, GYR or PPRYR SNAP-Fbs1 on BG beads; mixture of denatured fetuin and RNase B; low salt (50 mM ammonium acetate pH 7.5 named for Fig. 4a); 4 °C, 1 h; SDS-PAGE; both purified", "remark": "listed apart in the source"}, "[7]": {"target": "T1, SNAP-Fbs1 fusion protein (wild-type human Fbs1 sugar-binding domain, residues 92-296) (human)", "experiment": "pull-down; wt, GYR or PPRYR SNAP-Fbs1 on BG beads; mixture of denatured fetuin and RNase B; low salt (50 mM ammonium acetate pH 7.5 named for Fig. 4a); 4 °C, 1 h; SDS-PAGE; both purified", "remark": "listed apart in the source"}, "fetuin [8]": {"target": "T4, fetuin (UniProt P12763 19-359, sialylated complex N-linked glycans)", "T4 construct": "fetuin; Denatured by boiling in Rapid PNGase F buffer, or on Affi-Gel 15 beads with 6 M guanidine-HCl; also called sialylated fetuin; fetuin beads; source: bought: New England Biolabs; denatured before the assay", "T4 sequence (looked up)": "B2 chain", "experiment": "pull-down; fetuin (Affi-Gel 15) or RNase B (Affi-Gel 10) beads, denatured with 6 M guanidine-HCl; E. coli cell lysate with wt or mutant SNAP-Fbs1; 20 mM Tris.HCl pH 7.5, 1 mM EDTA, 50 mM NaCl (low salt) or 2 M NaCl (high salt), 30% Protein-Free Blocking buffer; 4 °C, 1 h; SDS-PAGE, ImageJ; only the target purified"}, "RNase B [9]": {"target": "RNase B (UniProt P61823)", "experiment": "pull-down; fetuin (Affi-Gel 15) or RNase B (Affi-Gel 10) beads, denatured with 6 M guanidine-HCl; E. coli cell lysate with wt or mutant SNAP-Fbs1; 20 mM Tris.HCl pH 7.5, 1 mM EDTA, 50 mM NaCl (low salt) or 2 M NaCl (high salt), 30% Protein-Free Blocking buffer; 4 °C, 1 h; SDS-PAGE, ImageJ; only the target purified"}, "fetuin [10]": {"target": "T4, fetuin", "experiment": "plasmid display capture; complexes of p50-wt Fbs1 and its encoding plasmid from gently lysed E. coli, incubated with immobilised RNase B or fetuin; captured plasmid as read-out; only the target purified"}, "RNase B [11]": {"target": "RNase B (UniProt P61823)", "experiment": "plasmid display capture; complexes of p50-wt Fbs1 and its encoding plasmid from gently lysed E. coli, incubated with immobilised RNase B or fetuin; captured plasmid as read-out; only the target purified"}, "[12]": {"target": "T3, SNAP-Fbs1 GYR variant (S155G, F173Y, E174R) (human)", "experiment": "pull-down; wt or GYR SNAP-Fbs1 on BG beads; TMR-labelled glycopeptides; 4 °C, 1 h; bound amount from the TMR fluorescence left in the supernatant, given as recovery percentage; low salt (50 mM NaCl or 50 mM ammonium acetate pH 7.5) or high salt (2 M NaCl); both purified"}, "[13]": {"target": "T1, SNAP-Fbs1 fusion protein (wild-type human Fbs1 sugar-binding domain, residues 92-296) (human)", "experiment": "pull-down; wt or GYR SNAP-Fbs1 on BG beads; TMR-labelled glycopeptides; 4 °C, 1 h; bound amount from the TMR fluorescence left in the supernatant, given as recovery percentage; low salt (50 mM NaCl or 50 mM ammonium acetate pH 7.5) or high salt (2 M NaCl); both purified"}}, "note": "Where a chain is given by its changes, count along the chain named. Names and notes keep the numbering of the source. Read-outs that look alike come from different tables or passages of the source. No constants are given. Whether binding was seen depends on the method and setting. For part of these data: Binding seen in cells or lysates may run through a third protein. Some binding calls cover weakened binding; strength is not graded here. For part of these data: Sequences can lack the tags named with a protein."}
{"binder": "B1", "values": [{"measurement": "binding", "setting": "[1]", "result": "binds"}, {"measurement": "binding", "setting": "[2]", "result": "binds"}, {"measurement": "binding", "setting": "[3]", "result": "binds"}, {"measurement": "binding", "setting": "[4]", "result": "binds"}]}
{"binder": "B2", "values": [{"measurement": "binding", "setting": "[1]", "result": "binds"}, {"measurement": "binding", "setting": "[5]", "result": "binds"}, {"measurement": "binding", "setting": "[6]", "result": "binds"}, {"measurement": "binding", "setting": "[7]", "result": "binds weakly"}]}
{"binder": "B3", "values": [{"measurement": "binding", "setting": "fetuin [8]", "result": "binds"}, {"measurement": "binding", "setting": "RNase B [9]", "result": "binds"}]}
{"binder": "B4", "values": [{"measurement": "binding", "setting": "fetuin [10]", "result": "binds weakly"}, {"measurement": "binding", "setting": "RNase B [11]", "result": "binds"}]}
{"binder": "B5", "values": [{"measurement": "binding", "setting": "fetuin [8]", "result": "binds"}]}
{"binder": "B6", "values": [{"measurement": "binding", "setting": "fetuin [8]", "result": "binds"}]}
{"binder": "B7", "values": [{"measurement": "binding", "setting": "fetuin [8]", "result": "binds"}]}
{"binder": "B8", "values": [{"measurement": "binding", "setting": "fetuin [8]", "result": "binds"}]}
{"binder": "B9", "values": [{"measurement": "binding", "setting": "[12]", "result": "binds"}, {"measurement": "binding", "setting": "[13]", "result": "binds"}]}
